No constants are given. Whether binding was seen depends on the method and setting. Some binding calls cover weakened binding; strength is not graded here.
T1: HMGA2Δ95–108 (mouse, UniProt P52927 1-94)
T1 construct: also called mutant that lacks the negatively charged C-terminus; source: made by PCR-based site directed mutagenesis, purified as described previously [26]
T1 sequence (looked up): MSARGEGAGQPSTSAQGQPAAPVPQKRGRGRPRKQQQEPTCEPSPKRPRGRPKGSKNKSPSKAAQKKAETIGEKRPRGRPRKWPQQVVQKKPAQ


Tests used:
HMGA2Δ95–108 = molecular target: T1, HMGA2Δ95–108; experiment: cross-linking; EDC (2 mM, zero-length) in MES buffer (10 mM MES, pH 5.5, 50 mM NaCl), 2 hours at 24°C; 29-116 μM protein; 15% SDS-PAGE, Coomassie; both purified
[1] = molecular target: mammalian high mobility group protein AT-hook 2 (HMGA2) (mouse) (UniProt P52927); experiment: cross-linking; disuccinimidyl suberate (DSS) and dimethyl suberimidate (DMS) as cross-linking reagents; data not shown; both purified

| binding (HMGA2Δ95–108) | binding [1] | Binder |
| --- | --- | --- |
| no binding (tested: 40 μM) | – | HMGA2Δ95–108 (domain or fragment, UniProt P52927 1-94) MSARGEGAGQPSTSAQGQPAAPVPQKRGRGRPRKQQQEPTCEPSPKRPRGRPKGSKNKSPSKAAQKKAETIGEKRPRGRPRKWPQQVVQKKPAQ |
| – | binds | mammalian high mobility group protein AT-hook 2 (HMGA2) (natural protein, mouse, UniProt P52927 1-108, looked up, also called mouse HMGA2; recombinant HMGA2; source: recombinant, purified as described previously [26]) MSARGEGAGQPSTSAQGQPAAPVPQKRGRGRPRKQQQEPTCEPSPKRPRGRPKGSKNKSPSKAAQKKAETIGEKRPRGRPRKWPQQVVQKKPAQETEETSSQESAEED |
